Experimental data from PubChem BioAssay AID1347075 (National Center for Advancing Translational Sciences (NCATS), 2019).
In all, about 400,000 compounds went through this assay and about 5,500 (1.4%) were called active. Inconclusive means that the source gave no clear call. Such entries were picked first, then a sample of the others. Calls follow the shape of the dose curve; as a rule, active = well fitted cell-killing curve with a large enough effect; inconclusive = small, poorly fitted or top-dose-only effect, or effect the other way; inactive = flat fitted curve, though single readings scatter. Potencies of inconclusive entries are doubtful fits and often do not repeat.

Test: qHTS assay for MDR1-selective chemotherapeutics: Primary screen using the parental adenocarcinoma cell KB-3-1; also: nearly all actives have a fitted effect of over 60% in size
Conditions: KB-3-1 viability, CellTiter-Glo ATP luminescence, 72 h; activity change, negative = cytotoxic: at 46.1 µM (top of the series)
Procedure, shortened: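 KB-3-1 parental drug-naive adenocarcinoma cells in DMEM/10% FBS, incubated 72 h at 37 C with pin-transferred compounds across a concentration series. Viability by CellTiter-Glo luminescence; concentration-response curves fitted after normalization.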
% is scaled to controls: 0 for no effect and ±100 for the full control effect; potency is read from the fitted curve at half-maximal effect.

| SMILES | Potency | activity change, negative = cytotoxic |
| --- | --- | --- |
| C#CCOCCOCCOCCNc1nc(N2CCN(C(=O)CCCCCCCCCCNC(=O)[C@@H](CCSC)n3cc(CCO)nn3)CC2)nc(N2CCN(C(=O)CCCCCCCCCCNC(=O)[C@H]([C@@H](C)CC)n3cc(CCCCCN)nn3)CC2)n1 | inconclusive: 29.1 µM [cytotoxic, single point] |  |
| Cc1cc(C)cc(NC(=O)CSc2nc(-c3cccc(Cl)c3)nc3c2Cc2c(CO)cnc(C)c2O3)c1 | inactive |  |
| O=C(COC(=O)COc1ccccc1)NC1CCCC1 | inactive |  |
| O=C1CN(C(=O)c2ccc(Br)o2)C(c2ccccc2)c2cc(Br)ccc2N1 (configuration not stated) | inconclusive: 29.1 µM [cytotoxic, single point] |  |
| COc1ccc(CNC(=O)Cn2c(SCC(=O)Nc3ccc(C)c(C)c3)nc3ccccc32)cc1 | inconclusive: 25.9 µM [cytotoxic, single point] |  |
| COc1cccc(-c2cccc(NC(=O)C3CCN(Cc4ccc(CO)o4)CC3)c2)c1 | inconclusive: 25.9 µM [rising, single point] |  |
| CCc1ccc(-n2nc(C)c3c(C(=O)Nc4cc(OC)cc(OC)c4)cc(C)nc32)cc1 | inactive |  |
| CC(c1ccco1)N(C(=O)c1ccc(F)cc1)c1ccccn1 (configuration not stated) | inactive |  |
| Cc1cc(C(=O)Nn2c(-c3ccc(Br)cc3)nc3ccccc3c2=O)ccc1[N+](=O)[O-] | inconclusive: 29.1 µM [cytotoxic, single point] |  |
| Cc1ccc(C(=O)NCc2cccnc2)cc1S(=O)(=O)Nc1ccccc1 | inconclusive: 29.1 µM [rising, single point] |  |
| COc1ccc(S(=O)(=O)NCCc2csc(-c3ccc(F)cc3)n2)cc1 | inconclusive: 29.1 µM [cytotoxic, single point] |  |
| O=C(C[N+]12CCCc3cccc(c31)CCC2)c1ccc2ccccc2c1 | inconclusive: 20.6 µM [cytotoxic, single point] |  |
| COc1ccc(C(=O)N(Cc2ccccc2)Cc2cc3cc4c(cc3[nH]c2=O)OCCO4)cc1 | active: 8.91 µM |  |
| COc1ccc(Cc2nnc(SCC(=O)N3CCCCC3)o2)cc1 |  | inconclusive: -7.65% |
| O=C(/C=C/c1ccco1)Nc1ccc(Cl)c(S(=O)(=O)N2CCOCC2)c1 | inconclusive: 16.4 µM [cytotoxic, single point] |  |
| O=C(NCCN1CCOCC1)c1ccncc1 | inactive |  |
| CC(C)(C)OC(=O)N1CCC[C@H]1c1nnc(SC/C=C/c2ccccc2)o1 | inactive |  |
| O=C(O)c1ccc(S(=O)(=O)/N=C2\C=C(Nc3ccccc3F)C(=O)c3ccccc32)cc1 | inconclusive: 29.1 µM [cytotoxic, single point] |  |
| Cc1ccc(-n2[nH]c(C)c(C=Nc3ccc4[nH]c(=O)[nH]c4c3)c2=O)cc1C | inconclusive: 14.6 µM [cytotoxic, partial curve] |  |
| CC(=O)c1ccc(C(=O)N2CCCC(N3CCN(c4ccc(F)cc4)CC3)C2)s1 (configuration not stated) | inconclusive: 20.6 µM [cytotoxic, single point] |  |
| N#CC(C#N)=C1C=CC=CN1/C(=C\c1ccco1)C(=O)c1ccc(-c2ccccc2)cc1 | inactive |  |
| O=C(Cc1ccccc1)N1CCc2ccccc21 | inactive |  |
| CCN(CC)C(=O)c1sc2c(c1C)c(=O)n(-c1ccc(Cl)c(Cl)c1)c(=O)n2Cc1cc(=O)n2c(C)cccc2n1 | inactive |  |

| SMILES | Potency | activity change, negative = cytotoxic |
| --- | --- | --- |
| NC(=O)c1cc(S(=O)(=O)N2CCc3ccccc3C2)cs1 | inactive |  |
| COc1ccc(-c2csc(NC(=O)C3CCN(c4ncnc5sc(C)c(C)c45)CC3)n2)cc1OC | inconclusive: 8.2 µM [cytotoxic, partial curve] |  |
| Cc1ccc(Sc2ccc(CN3CCCC3)cc2[N+](=O)[O-])cc1 | inactive |  |
| CCNc1nc(NCC)n2c(SCC(=O)NC34CC5CC(CC(C5)C3)C4)nnc2n1 | inconclusive: 29.1 µM [cytotoxic, single point] |  |
| COc1ccc(C/C(O)=C(\C#N)c2nc3ccccc3[nH]2)cc1OC | inactive |  |
| Cc1ccc(-c2nc(C)c(CCNS(=O)(=O)c3ccccc3F)s2)cc1 | inconclusive: 32.6 µM [cytotoxic, single point] |  |
| CCOC(=O)Cc1csc(SCC(=O)Nc2oc(C)c3c(C)n[nH]c(=O)c23)n1 | inactive |  |
| C[C@@H](c1ccccc1)N1C[C@H](COCc2ccccc2)Oc2cc(N3CC[C@H](O)C3)ccc2S1(=O)=O | inactive |  |
| S=C(NCC1CCCO1)N1CCN(c2ccc(Cl)c(Cl)c2)CC1 (configuration not stated) | inconclusive: 14.6 µM [cytotoxic, partial curve, poor fit] |  |
| COc1ccc(-c2ccc3c(c2)C2CC3CCN2C(=O)OCc2ccccc2)cc1 (configuration not stated) | inconclusive: 13 µM [cytotoxic, partial curve, poor fit] |  |
| COc1cc(NS(C)(=O)=O)ccc1Nc1c2ccccc2nc2ccccc12 | inconclusive: 18.4 µM [cytotoxic, single point] |  |
| CS(=O)(=O)Nc1ccc(C2=NN(C(=O)C3CCCCC3)C(c3cccs3)C2)cc1 (configuration not stated) | inactive |  |
| Cc1cc(SCC(=O)Nc2cccc(S(=O)(=O)NC3=NCCCCC3)c2)nc2ccccc12 | inconclusive: 29.1 µM [cytotoxic, single point] |  |
| CC1(Cc2ccccc2C#N)C(=O)Nc2cc(-c3ccccc3Cl)ccc21 (configuration not stated) | inconclusive: 29.1 µM [cytotoxic, single point] |  |
| COc1ccc(NC(=O)C2CCCN(C(=O)Nc3ccc(OC)cc3)C2)cc1 (configuration not stated) | inconclusive: 25.9 µM [rising, partial curve, poor fit] |  |
| CCn1c(SCC(=O)Nc2cccc(NC(C)=O)c2)nnc1C(C)C | inactive |  |
| CC(=O)Nc1cc(-c2ccccc2CN(C)C)cn2c(-c3ccc(C(C)=O)cc3)cnc12 | inconclusive: 29.1 µM [cytotoxic, single point] |  |
| CCOC(=O)c1ccc2c(c1)N(C)C(=O)c1ccccc1S2 | inconclusive: 32.6 µM [cytotoxic, partial curve, poor fit] |  |
| Cc1ccn2cc(-c3ccc(NS(=O)(=O)c4ccccc4)cc3)nc2c1 | inactive |  |
| Cc1ccc2ccccc2c1C(O)c1ncc(-c2ccc(F)cc2)[nH]1 (configuration not stated) | inactive |  |
| CC(=NNC(=S)N1CCCCCC1)c1ccccn1 | inconclusive: 0.0082 µM [cytotoxic, full curve, poor fit] |  |
| Cc1ccc(OCCOCCOc2ccc(Br)cc2/C=N\NC(=O)c2ccncc2)cc1 | inconclusive: 18.4 µM [cytotoxic, single point] |  |
| CCC(=O)Nc1cc(-c2nn(C)c(=O)c3ccccc23)ccc1OC | inactive |  |

| SMILES | Potency | activity change, negative = cytotoxic |
| --- | --- | --- |
| CCOC(=O)C1=C(c2ccccc2)NC(SCC(=O)Nc2ccccc2C)=C(C#N)C1c1ccco1 (configuration not stated) | inconclusive: 29.1 µM [cytotoxic, single point] |  |
| COc1ccc2cc(CN(Cc3cccs3)Cc3nnnn3Cc3ccccc3)c(=O)[nH]c2c1 | inconclusive: 29.1 µM [cytotoxic, single point] |  |
| CC(=O)c1sc(NC(=O)C2(F)C(F)(F)C(F)(F)C(F)(F)C(F)(F)C2(F)F)nc1C | inconclusive: 3.26 µM [cytotoxic, full curve, poor fit] |  |
| C[N+](C)(C)c1ccc(/C=C2\C=Cc3ccccc32)cc1 | inconclusive: 18.4 µM [cytotoxic, single point] |  |
| S=C(NNc1ccc2ccccc2c1)NC1CCCCC1 | inconclusive: 29.1 µM [cytotoxic, single point] |  |
| Cc1nc2ccccc2nc1SCC(=O)N1CCC(C)CC1 | inactive |  |
| CCC(C)Sc1cc(-c2nc3ccc(C)cn3c2NCc2ccccc2)ccc1OC (configuration not stated) | inconclusive: 18.4 µM [cytotoxic, single point] |  |
| CCOc1ccc(N(CC)S(=O)(=O)c2ccc3c(c2)oc(=O)n3C)cc1 | inconclusive: 29.1 µM [cytotoxic, single point] |  |
| Clc1ccc(/C=C/c2nc3ccccc3[nH]2)cc1 | inconclusive: 23.1 µM [cytotoxic, single point] |  |
| CC(=O)c1ccc(OCCCC(=O)Nc2ccc(C)c(S(=O)(=O)N(C)C)c2)cc1 | active: 20.6 µM |  |
| CCN(CC)CCCNC(=O)c1ccc(-c2nc(CN3CCc4ccccc43)c(C)o2)cc1 | inconclusive: 23.1 µM [cytotoxic, single point] |  |
| Cc1oc2cc([N+](=O)[O-])c(O)c([N+](=O)[O-])c2c1C(=O)c1ccc(Cl)cc1 | inconclusive: 23.1 µM [cytotoxic, single point] |  |
| Nc1nc(N)c2cc(S(=O)(=O)c3cccc(C(F)(F)F)c3)ccc2n1 | inconclusive: 18.4 µM [cytotoxic, single point] |  |
| O=C(Nc1ccc(F)cc1Cl)C1CCN(C(=O)Nc2ccccc2)CC1 | inactive |  |
| O=C(OCC(=O)N1CCOCC1)c1ccc2[nH]c3c(c2c1)CCCC3 | inconclusive: 7.31 µM [cytotoxic, partial curve, poor fit] |  |
| Cc1ccc(S(=O)(=O)Nc2cc3c(cc2NCc2ccccc2)n(C)c(=O)n3C)c(C)c1 | inactive |  |
| Cc1ccc2nc(NC(=O)CSCC(=O)OCC(=O)c3ccc(Br)cc3)sc2c1 | inactive |  |
| Nc1nonc1-n1nnc(C(=O)N/N=C/c2ccccc2Cl)c1CSc1ccccc1 | inactive |  |
| COC(=O)c1c(N2C(=O)[C@H]3[C@@H](C2=O)[C@]2(C(=O)Nc4c(C)cccc42)N2CCC[C@@H]32)sc(C)c1C | inconclusive: 1.46 µM [rising, full curve] |  |
| Cc1ccc(-c2nc3ccccc3s2)cc1NC(=S)NC(=O)c1ccccc1 | inactive |  |
| Cc1cccc(Cn2c(SCc3ccc(C(=O)NCCc4ccccc4)cc3)nc3ccncc32)c1 | inconclusive: 16.4 µM [cytotoxic, single point] |  |

Pulled by compound from the entries so far:

| SMILES | Potency | activity change, negative = cytotoxic |
| --- | --- | --- |
| COc1ccc2cc(CN(Cc3cccs3)Cc3nnnn3Cc3ccccc3)c(=O)[nH]c2c1 | inconclusive: 29.1 µM [cytotoxic, single point] |  |
| C[N+](C)(C)c1ccc(/C=C2\C=Cc3ccccc32)cc1 | inconclusive: 18.4 µM [cytotoxic, single point] |  |
| Cc1ccc(S(=O)(=O)Nc2cc3c(cc2NCc2ccccc2)n(C)c(=O)n3C)c(C)c1 | inactive |  |
| S=C(NNc1ccc2ccccc2c1)NC1CCCCC1 | inconclusive: 29.1 µM [cytotoxic, single point] |  |
| CCOc1ccc(N(CC)S(=O)(=O)c2ccc3c(c2)oc(=O)n3C)cc1 | inconclusive: 29.1 µM [cytotoxic, single point] |  |
| COC(=O)c1c(N2C(=O)[C@H]3[C@@H](C2=O)[C@]2(C(=O)Nc4c(C)cccc42)N2CCC[C@@H]32)sc(C)c1C | inconclusive: 1.46 µM [rising, full curve] |  |
